# Test results: PubChem BioAssay AID258 (DTP/NCI, 2004)
# The list shows only some results of the screen, not a fair sample: it gathers tests that were run many times, whatever their T/C, doses with no T/C, and many T/C values between a quarter and a half above the control. Other doses and runs of a compound stand elsewhere. T/C gives the treated animals as a percentage of the vehicle group. Some entries give survivors of the animals treated and no T/C: the source files T/C as zero there, which appears to mark a toxic dose or a test without result, not a measured value. Some doses without a T/C left all or most animals alive at the check, yet need not have been tolerated: survival well below the control is almost never listed, so the zero probably covers shortened survival too. Counts of survivors are from the toxicity check (mostly the fifth day) where no day follows; animals may have died later. Schedules are NCI's codes, taken here to give the interval after Q, in days (D) or hours (H), and the number of doses after X. For survival time, this PubChem deposit counts one and a half times the control or more as active, and values a quarter to a half above the control carry no call in these data; other NCI protocols may use other cut-offs. Some entries were tested several times; the values are given in rising order. Some T/C values carry the count of animals alive at the toxicity check (mostly the fifth day); where none is given, no animal had died by that day.
# Tested on: CD2F1 mice, L1210 leukemia sc, survival T/C
# Experiment: NCI In Vivo Anticancer Drug Screen. Data for tumor model L1210 Leukemia (subcutaneous) in CD2F1 (CDF1) mice
# Details: T/C endpoint: median survival time, vehicle: saline, higher T/C = longer survival
# Procedure, shortened: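 Compound given to mice bearing transplantable tumor. Survival or tumor size then recorded. Result expressed relative to vehicle-dosed control group as T/C.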
# [1] = dose: 16.9 mg/kg/injection, schedule: Q01DX001 (ip)
# [2] = dose: 25.3 mg/kg/injection, schedule: Q01DX001 (ip)
structure (smiles),measurement,setting,value
Nc1ccn([C@@H]2C=C(CO)[C@@H](O)[C@H]2O)c(=O)n1,T/C,"dose: 0.2 mg/kg/injection, schedule: Q03HX016 (ip)",125 % of control
same,T/C,"dose: 0.2 mg/kg/injection, schedule: Q03HX024 (ip)",134 % of control
same,T/C,"dose: 0.29 mg/kg/injection, schedule: Q03HX024 (ip)",126 % of control
same,T/C,"dose: 0.3 mg/kg/injection, schedule: Q03HX016 (ip)",127 % of control
same,T/C,"dose: 0.3 mg/kg/injection, schedule: Q03HX024 (ip)",141 % of control [5 of 6 alive]
same,T/C,"dose: 0.45 mg/kg/injection, schedule: Q03HX016 (ip), evaluated on day 30",141 % of control
same,T/C,"dose: 0.45 mg/kg/injection, schedule: Q03HX016 (ip), evaluated on day 45",134 % of control
same,T/C,"dose: 0.45 mg/kg/injection, schedule: Q03HX024 (ip)",144 % of control [5 of 6 alive]
same,T/C,"dose: 0.53 mg/kg/injection, schedule: Q01DX009 (ip)",142 % of control
same,survivor count,"dose: 0.66 mg/kg/injection, schedule: Q03HX016 (ip)",6 of 6 on day 7
same,survivor count,"dose: 0.66 mg/kg/injection, schedule: Q03HX024 (ip)",5 of 6 on day 7
same,T/C,"dose: 0.67 mg/kg/injection, schedule: Q01DX009 (ip), evaluated on day 23",126 and 133 % of control
same,T/C,"dose: 0.67 mg/kg/injection, schedule: Q01DX009 (ip), evaluated on day 30",111 and 117 % of control
same,T/C,"dose: 0.67 mg/kg/injection, schedule: Q01DX009 (ip), evaluated on day 45",127 % of control
same,T/C,"dose: 0.67 mg/kg/injection, schedule: Q01DX009 (sc)",127 % of control
same,T/C,"dose: 0.67 mg/kg/injection, schedule: Q03HX016 (ip), evaluated on day 30",142 % of control
same,T/C,"dose: 0.67 mg/kg/injection, schedule: Q03HX016 (ip), evaluated on day 45",132 % of control
same,survivor count,"dose: 0.67 mg/kg/injection, schedule: Q03HX024 (ip)",6 of 6
same,T/C,"dose: 0.9 mg/kg/injection, schedule: Q03HX008 (ip)",132 % of control
same,T/C,"dose: 0.99 mg/kg/injection, schedule: Q01DX005 (iv)",135 % of control
same,survivor count,"dose: 0.99 mg/kg/injection, schedule: Q03HX016 (ip)",6 of 6 on day 7
same,survivor count,"dose: 0.99 mg/kg/injection, schedule: Q03HX024 (ip)",5 of 6 on day 7
same,T/C,"dose: 1.0 mg/kg/injection, schedule: Q01DX009 (ip), evaluated on day 23",150 and 155 % of control
same,T/C,"dose: 1.0 mg/kg/injection, schedule: Q01DX009 (ip), evaluated on day 30",177 and 183 % of control
same,T/C,"dose: 1.0 mg/kg/injection, schedule: Q01DX009 (ip), evaluated on day 45",201 % of control
same,T/C,"dose: 1.0 mg/kg/injection, schedule: Q03HX008 (ip)",132 % of control
same,T/C,"dose: 1.0 mg/kg/injection, schedule: Q03HX016 (ip)",144 % of control
same,survivor count,"dose: 1.0 mg/kg/injection, schedule: Q03HX024 (ip)",5 of 6
same,T/C,"dose: 1.3 mg/kg/injection, schedule: Q03HX008 (ip)",130 % of control
same,survivor count,"dose: 1.49 mg/kg/injection, schedule: Q03HX016 (ip)",6 of 6 on day 7
same,T/C,"dose: 1.5 mg/kg/injection, schedule: Q01DX009 (ip), evaluated on day 23",174 and 184 % of control
same,T/C,"dose: 1.5 mg/kg/injection, schedule: Q01DX009 (ip), evaluated on day 30",192 and 209 % of control
same,T/C,"dose: 1.5 mg/kg/injection, schedule: Q01DX009 (ip), evaluated on day 45",185 % of control
same,T/C,"dose: 1.5 mg/kg/injection, schedule: Q03HX008 (ip)",125 % of control
same,survivor count,"dose: 1.5 mg/kg/injection, schedule: Q03HX016 (ip)",6 of 6
same,survivor count,"dose: 1.5 mg/kg/injection, schedule: Q06HX018 (ip)",6 of 6
same,T/C,"dose: 1.8 mg/kg/injection, schedule: Q01DX009 (ip)",134 % of control
same,T/C,"dose: 2.0 mg/kg/injection, schedule: Q03HX008 (ip)",143 % of control
same,survivor count,"dose: 2.23 mg/kg/injection, schedule: Q03HX008 (ip)",6 of 6 on day 7
same,survivor count,"dose: 2.23 mg/kg/injection, schedule: Q03HX016 (ip)",5 of 6 on day 7
same,T/C,"dose: 2.25 mg/kg/injection, schedule: Q01DX009 (ip), evaluated on day 23",115 and 119 % of control
same,T/C,"dose: 2.25 mg/kg/injection, schedule: Q01DX009 (ip), evaluated on day 30",116 and 206 % of control
same,T/C,"dose: 2.25 mg/kg/injection, schedule: Q01DX009 (ip), evaluated on day 45",192 % of control
same,T/C,"dose: 2.25 mg/kg/injection, schedule: Q03HX008 (ip)",134 % of control
same,T/C,"dose: 2.67 mg/kg/injection, schedule: Q03HX004 (iv)",127 % of control
same,survivor count,"dose: 3.34 mg/kg/injection, schedule: Q01DX005 (iv)",10 of 10 on day 7
same,survivor count,"dose: 3.34 mg/kg/injection, schedule: Q03HX008 (ip)",6 of 6 on day 7
same,T/C,"dose: 4.0 mg/kg/injection, schedule: Q03HX004 (iv)",143 % of control
same,survivor count,"dose: 5.0 mg/kg/injection, schedule: Q01DX005 (iv)",10 of 10 on day 7
same,survivor count,"dose: 5.0 mg/kg/injection, schedule: Q03HX008 (ip)",6 of 6 on day 7
same,T/C,"dose: 6.0 mg/kg/injection, schedule: Q03HX004 (iv)",148 % of control
same,T/C,"dose: 7.5 mg/kg/injection, schedule: Q01DX001 (ip)",125 % of control
same,survivor count,"dose: 13.5 mg/kg/injection, schedule: Q03HX004 (iv)",7 of 8
same,T/C,"dose: 16.0 mg/kg/injection, schedule: Q01DX001 (ip)",134 % of control
same,T/C,"dose: 16.0 mg/kg/injection, schedule: Q01DX001 (iv)",127 % of control
same,T/C,[1],134 % of control
same,survivor count,[1],6 of 6 on day 7
same,T/C,"dose: 24.0 mg/kg/injection, schedule: Q01DX001 (ip)",137 % of control
same,T/C,"dose: 24.0 mg/kg/injection, schedule: Q01DX001 (iv)",144 % of control
same,T/C,[2],144 % of control
same,survivor count,[2],6 of 6 on day 7
same,survivor count,"dose: 25.3 mg/kg/injection, schedule: Q01DX001 (iv)",6 of 6 on day 7
same,T/C,"dose: 36.0 mg/kg/injection, schedule: Q01DX001 (iv)",148 % of control
same,survivor count,"dose: 37.9 mg/kg/injection, schedule: Q01DX001 (ip)",6 of 6 on day 7
same,survivor count,"dose: 56.8 mg/kg/injection, schedule: Q01DX001 (ip)",6 of 6 on day 7
same,T/C,"dose: 130.0 micrograms/kg/injection, schedule: Q03HX024 (ip)",137 % of control
same,T/C,"dose: 300.0 micrograms/kg/injection, schedule: Q03HX024 (ip)",141 % of control
same,T/C,"dose: 450.0 micrograms/kg/injection, schedule: Q03HX024 (ip)",142 % of control
N[C@H](C(=O)O)[C@@H]1CC(Cl)=NO1,T/C,"dose: 4.0 mg/kg/injection, schedule: Q01DX009 (sc)",146 % of control
same,T/C,"dose: 8.0 mg/kg/injection, schedule: Q01DX009 (sc)",149 % of control
same,T/C,"dose: 16.0 mg/kg/injection, schedule: Q01DX009 (sc)",147 % of control
same,T/C,"dose: 32.0 mg/kg/injection, schedule: Q01DX009 (sc)",131 % of control
same,T/C,"dose: 64.0 mg/kg/injection, schedule: Q01DX009 (sc)",128 % of control
same,T/C,"dose: 128.0 mg/kg/injection, schedule: Q01DX009 (sc)",128 % of control
